# Assay results

Source: PubChem BioAssay AID912 (NCATS, 2007).

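Uptake of anthrax lethal toxin into cultured cells, read by FRET (460/530 nm ratio) and reported from the 460 nm channel; the cell line is not named here.
Each compound was tested as a concentration series from about 0.0005 to 40 µM.
The number is the fitted AC50 of the 460 nm signal alone; lower values mean a more potent effect. A falling signal goes with compounds filed as inhibitors or cytotoxic, a rising one with activators or fluorescent compounds (inferred from the filed classes).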

Values are in µM.
Common to all entries: measured here: 460 nm channel.
Part of the compounds only, not a random draw; the main read-out is not listed here.
Potencies fitted to partial, single-point or poorly fitting curves are rough.
The first word of each remark tells which way the curve ran; it can be opposite to the aim of the assay.

| Compound | AC50 (µM) | curve as filed |
|---|---|---|
| `CCc1ccc(NC(=O)CN(c2ccc3c(c2)OCO3)S(=O)(=O)c2c(C)noc2C)cc1` | 5.012 | falling, partial curve |
| `Cc1cc(C(=O)Nc2sc3c(c2C#N)CCCCC3)cs1` | 12.59 | falling, partial curve |
| `N#Cc1ccccc1Sc1ccccc1C(=O)OCC(=O)N1CCN(C(=O)c2ccco2)CC1` | 25.12 | rising, single point |
| `O=C(O)C(Cc1ccccc1)n1cnnn1` (stereo not given) | 0.01995 | falling, full curve, poor fit |
| `CC(c1ccccc1)C1CC(=O)N(Cc2ccco2)C1=O` (stereo not given) | 5.012 | rising, single point |
| `O=C(NCCNC(=O)C1CC2CCC1C2)C1CC2CCC1C2` (stereo not given) | 5.012 | rising, single point |
| `O=C(CSc1nc2[nH]ncc2c(=O)n1-c1ccccc1)c1ccc2c(c1)OCCO2` | 1.995 | rising, partial curve |
| `CC1CCCN(C(=O)COC(=O)c2n[nH]c3ccccc23)C1` (stereo not given) | 5.012 | rising, single point |
| `CCCCCn1c(SCC2CCCO2)nc2cc(C(=O)N3CCC(C(N)=O)CC3)ccc2c1=O` (stereo not given) | 25.12 | rising, single point |
| `O=S(=O)(Cc1ccccc1)N1CCCC(c2nc(-c3ccc(F)cc3)no2)C1` (stereo not given) | 31.62 | falling, single point |
| `CN1CCc2c(sc(/N=C/c3ccco3)c2C(N)=O)C1` | 12.59 | rising, single point |
| `CCOC(=O)c1cnc(SCC(=O)Nc2ccccc2N2CCOCC2)nc1N` | 0.631 | rising, single point |
| `CC1CCN(CC[S-])CC1.O.O.[Cl][Pt]` | 0.7943 | rising, full curve |
| `CNc1ncnc2c1ncn2[C@H]1C[C@H](OP(=O)(O)O)[C@H](COP(=O)(O)O)O1` | 12.59 | falling, single point |
| `c1ccc(OCc2nc(-c3ccccc3)no2)cc1` | 12.59 | falling, partial curve, poor fit |
| `CC(C)CNC(=O)O` | 1 | falling, partial curve |
| `OC[C@@H]1O[C@@H](n2cnc3c(NC4CCCC4)ncnc32)[C@H](O)[C@H]1O` | 12.59 | falling, single point |
| `COc1cc(C)c(C(C)C)cc1S(=O)(=O)n1cnc(C)c1` | 1 | falling, partial curve |
| `O=C(NC1CCCCC1)C(c1ccccc1)N(Cc1ccco1)C(=O)Cn1cnc2ccccc21` (stereo not given) | 1.585 | rising, full curve, poor fit |
| `COc1ccc(CC(=O)Nc2oc(-c3ccccc3)c(-c3ccccc3)c2C#N)cc1OC` | 3.162 | falling, full curve |
| `CCCc1cc(N2CCCC2)n2nc(C)c(-c3ccccc3)c2n1` | 2.512 | falling, single point |
| `CC(C)CN1CC[C@@]2(CCCN(S(=O)(=O)c3ccccc3)C2)C1` | 12.59 | rising, partial curve |
| `COc1cc(Cl)c(C)cc1NC(=O)CSc1nc2ccccc2o1` | 31.62 | falling, single point |
| `ClC(Cl)(Cl)C(Cl)(Cl)Cl` | 1.995 | falling, full curve, poor fit |
| `c1cnc2ccc(C(c3nnnn3C3CCCC3)N3CCN(c4nc5ccccc5s4)CC3)cc2c1` (stereo not given) | 3.981 | rising, partial curve, poor fit |
| `CCOC(=O)CCc1c(C)c2ccc(OCc3nn[nH]n3)cc2oc1=O` | 1.995 | rising, single point |
| `CN(C)c1ccc(CNC2CC(C)(C)NC(C)(C)C2)cc1` | 10 | falling, partial curve |
| `COc1ccc(-c2nc3cnc(N4CCNCC4)nc3n(-c3ccccc3)c2=O)cc1` | 3.162 | rising, full curve |
| `C=CCSc1nc2ccccc2n1Cc1nnc(-c2cccs2)o1` | 10 | rising, partial curve |
| `CC(C)c1cccc2c([Si](C)(C)C)c3c(nc12)-c1cccc(=O)n1C3` | 0.1 | rising, full curve, poor fit |
| `Cc1[nH]nc2c1C(C1CC=CCC1)C(C#N)=C(N)O2` (stereo not given) | 5.012 | rising, single point |
| `CCCCOc1cc(C)nc(NCc2ccccc2)n1` | 12.59 | falling, partial curve |
| `COc1cc(-c2c(C#N)c(N)nc3c2CCCC3)cc(OC)c1OC` | 15.85 | rising, partial curve |
| `COCCN(C(=O)Cn1nnc2ccccc21)C(C(=O)NC1CCCC1)c1cc(OC)ccc1OC` (stereo not given) | 5.012 | rising, single point |
| `COCCN1C=C(C(=O)OC)C(c2ccc(OC)c(OC)c2)C(C(=O)OC)=C1` | 5.012 | rising, partial curve |
| `Cc1cc(NC(=O)CSc2nc(-c3ccco3)cc(C(F)(F)F)n2)no1` | 3.162 | falling, partial curve |
| `COc1cc2c(cc1NC(=O)CSc1nnc(Cc3cccs3)n1C)oc1ccccc12` | 31.62 | rising, partial curve |
| `C[N+](C)(C)CCC(=O)c1cccc2ccccc12` | 31.62 | falling, partial curve |
| `Cc1cccc2sc(NC(=O)CN(C)S(=O)(=O)c3ccc(Br)s3)nc12` | 10 | falling, single point |
| `Oc1ccc(/C=C\c2cc(O)cc(O)c2)cc1` | 12.59 | falling, partial curve |
| `O=C(O)Cc1nn(Cc2ccc(Br)cc2F)c(=O)c2ccccc12` | 12.59 | falling, partial curve, poor fit |
| `COc1ccccc1N1CCN(Cc2ccc(OC)c3ccccc23)CC1` | 10 | falling, partial curve |
| `C=CS(=O)(=O)c1ccc(Oc2ccc(S(=O)(=O)C=C)cc2)cc1` | 2.512 | falling, full curve |
| `CCOC(=O)c1[nH]c(C)c(C(=O)NCc2ccc(OC)cc2)c1C` | 15.85 | rising, single point |
| `N[C@@H](CSCc1ccc(I)cc1)C(=O)O` | 1 | rising, single point |